According to patent publication US20250177448A1, “NEW USE OF PEG-PHOSPHOLIPID MOLECULES” (ICOAT MEDICAL AB, priority 2022, published 2025):

Tested on: CCRF-CEM cells
Assay: Detachment (retention time) of FAM-PEG-phospholipid from CCRF-CEM cells in vitro
Type: cell-based

“N-(methylpolyoxyethylene oxycarbonyl)-1,2-dipalmitoyl-sn-glycero-3-phosphoethanolamine [PEG-phospholipid]” was tested. Which “time after which PEG-phospholipid detached fully in vitro” value did it give?
Its value is 48 h.

Some results come without the dose or concentration used.
